The supplement of paper PMC11348887
Counter-ions that a name gives are not always drawn. The list shows a part of the results. Most entries show no effect beyond the scatter of the controls.

What follows are molecules tested on hPSC-derived cortical neurons (WA09) (assay: KCl-induced FOS+/EGR-1+ double-positive nuclei fraction z-score (KCl minus unstimulated); higher = stronger activity-induced IEG response). Conditions: 5 µM; treatment: days 7-14 after plating, readout day 21.

SMILES | KCl-induced FOS+/EGR-1+ double-positive nuclei fraction z-score
COc1ccc(-n2nc(C(N)=O)c3c2C(=O)N(c2ccc(N4CCCCC4=O)cc2)CC3)cc1 [Apixaban] | 0.912
C[C@]12C=CC(=O)C=C1CC[C@H]1[C@@H]3C[C@@H](O)[C@](O)(C(=O)CO)[C@@]3(C)C[C@H](O)[C@@]12F [Triamcinolone] | -0.171
Nc1nc(Nc2ccc(S(N)(=O)=O)cc2)nn1C(=O)c1c(F)cccc1F | -0.6
CC(C)(O)CC[C@@H](O)[C@](C)(O)[C@H]1CC[C@@]2(O)C3=CC(=O)[C@@H]4C[C@@H](O)[C@@H](O)C[C@]4(C)[C@H]3CC[C@]12C [20-Hydroxyecdysone] | -0.263
CC(C)NCC(O)c1ccc(O)c(O)c1 (stereo unspecified) [Isoprenaline HCl] | 1.08
Cc1nc2ccc(NC(=O)Nc3ccnc4cccnc34)cc2o1 | -0.357
NC(=O)c1ncn([C@@H]2O[C@H](CO)[C@@H](O)[C@H]2O)c1N [Acadesine] | -0.943
COc1c(C)cnc(Cn2cnc3c(Cl)nc(N)nc32)c1C | -1.72
Cc1ccc(NC(=S)NNc2c([N+](=O)[O-])cc(C(F)(F)F)cc2[N+](=O)[O-])cc1Cl | 1.71
Cc1nc2c(-c3cnc(N)nc3)nc(N3CCOCC3)nc2n1C(C)C | 0.675
CNC(=O)c1ccccc1Sc1ccc2c(/C=C/c3ccccn3)n[nH]c2c1 [Axitinib] | -0.262
CC[C@H](C)C(=O)O[C@H]1C[C@@H](C)C=C2C=C[C@H](C)[C@H](CC[C@@H]3C[C@@H](O)CC(=O)O3)[C@H]21 [Lovastatin] | -0.147
CCOC(N)=O [Urethane] | 0.492
COc1ccc2[nH]c([S@@+]([O-])Cc3ncc(C)c(OC)c3C)nc2c1 [Esomeprazole Magnesium] | 0.982
CN1CCN(c2cccc(Nc3nc4c(-c5ccc(S(C)(=O)=O)cc5)cccn4n3)c2)CC1 | -0.0569
CCN(CC)C(=S)SSC(=S)N(CC)CC [Disulfiram] | 0.397

2 entries from above, as a markdown table.

| SMILES | KCl-induced FOS+/EGR-1+ double-positive nuclei fraction z-score |
| --- | --- |
| Cc1nc2ccc(NC(=O)Nc3ccnc4cccnc34)cc2o1 | -0.357 |
| NC(=O)c1ncn([C@@H]2O[C@H](CO)[C@@H](O)[C@H]2O)c1N [Acadesine] | -0.943 |
